Results are given in words; binding and its absence hold for the method and conditions named. Tags and fused reporters may be left off the sequences shown.
Biological target: T1, FLAG-Sec24D (human) (UniProt O94855)
T1 sequence: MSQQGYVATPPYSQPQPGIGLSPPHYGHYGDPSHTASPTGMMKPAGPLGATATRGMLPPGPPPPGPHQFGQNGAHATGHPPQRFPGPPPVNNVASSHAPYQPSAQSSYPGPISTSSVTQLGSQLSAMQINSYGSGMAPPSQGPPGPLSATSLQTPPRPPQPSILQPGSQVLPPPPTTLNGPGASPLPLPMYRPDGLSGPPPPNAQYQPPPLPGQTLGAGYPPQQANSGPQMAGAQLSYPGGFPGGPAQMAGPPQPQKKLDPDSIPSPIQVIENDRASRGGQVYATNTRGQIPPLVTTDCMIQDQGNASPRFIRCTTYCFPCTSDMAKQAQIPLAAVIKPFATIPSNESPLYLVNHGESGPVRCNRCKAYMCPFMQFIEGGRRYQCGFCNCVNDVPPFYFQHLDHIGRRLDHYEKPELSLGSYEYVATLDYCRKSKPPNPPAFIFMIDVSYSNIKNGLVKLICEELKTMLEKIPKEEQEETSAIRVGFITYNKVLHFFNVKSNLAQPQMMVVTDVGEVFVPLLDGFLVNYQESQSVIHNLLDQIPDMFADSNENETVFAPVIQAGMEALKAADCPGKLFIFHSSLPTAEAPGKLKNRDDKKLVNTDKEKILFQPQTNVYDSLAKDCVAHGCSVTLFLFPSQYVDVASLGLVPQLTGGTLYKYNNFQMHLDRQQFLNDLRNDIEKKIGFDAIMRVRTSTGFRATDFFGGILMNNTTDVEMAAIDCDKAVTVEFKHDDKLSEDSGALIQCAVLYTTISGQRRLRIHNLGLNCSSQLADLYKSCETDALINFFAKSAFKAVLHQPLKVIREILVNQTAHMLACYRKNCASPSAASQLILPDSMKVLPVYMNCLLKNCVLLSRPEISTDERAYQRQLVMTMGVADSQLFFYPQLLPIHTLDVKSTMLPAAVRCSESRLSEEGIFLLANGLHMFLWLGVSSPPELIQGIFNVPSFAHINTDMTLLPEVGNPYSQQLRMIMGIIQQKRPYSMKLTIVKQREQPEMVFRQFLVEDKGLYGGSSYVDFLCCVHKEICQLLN
Experiment: pull-down

binding: no binding
Substance: GST-tagged cTAGE5-PRD (651–804aa)-His6 wild-type (human) (domain or fragment)

Reference: paper doi:10.1101/452904 (bioRxiv, 2018)
